# Data taken from the supplement of paper PMC12819154, “High-throughput peptide-centric local stability assay extends protein–ligand identification to membrane proteins, tissues and bacteria” (Nature Structural & Molecular Biology, 2025).
# The chains behind the UniProt entries cited, without tags or fusion partners. Where a name states a change or a piece, a line headed by the entry shows the natural chain unless it says otherwise.
# UniProt Q9NSV4, whole entry: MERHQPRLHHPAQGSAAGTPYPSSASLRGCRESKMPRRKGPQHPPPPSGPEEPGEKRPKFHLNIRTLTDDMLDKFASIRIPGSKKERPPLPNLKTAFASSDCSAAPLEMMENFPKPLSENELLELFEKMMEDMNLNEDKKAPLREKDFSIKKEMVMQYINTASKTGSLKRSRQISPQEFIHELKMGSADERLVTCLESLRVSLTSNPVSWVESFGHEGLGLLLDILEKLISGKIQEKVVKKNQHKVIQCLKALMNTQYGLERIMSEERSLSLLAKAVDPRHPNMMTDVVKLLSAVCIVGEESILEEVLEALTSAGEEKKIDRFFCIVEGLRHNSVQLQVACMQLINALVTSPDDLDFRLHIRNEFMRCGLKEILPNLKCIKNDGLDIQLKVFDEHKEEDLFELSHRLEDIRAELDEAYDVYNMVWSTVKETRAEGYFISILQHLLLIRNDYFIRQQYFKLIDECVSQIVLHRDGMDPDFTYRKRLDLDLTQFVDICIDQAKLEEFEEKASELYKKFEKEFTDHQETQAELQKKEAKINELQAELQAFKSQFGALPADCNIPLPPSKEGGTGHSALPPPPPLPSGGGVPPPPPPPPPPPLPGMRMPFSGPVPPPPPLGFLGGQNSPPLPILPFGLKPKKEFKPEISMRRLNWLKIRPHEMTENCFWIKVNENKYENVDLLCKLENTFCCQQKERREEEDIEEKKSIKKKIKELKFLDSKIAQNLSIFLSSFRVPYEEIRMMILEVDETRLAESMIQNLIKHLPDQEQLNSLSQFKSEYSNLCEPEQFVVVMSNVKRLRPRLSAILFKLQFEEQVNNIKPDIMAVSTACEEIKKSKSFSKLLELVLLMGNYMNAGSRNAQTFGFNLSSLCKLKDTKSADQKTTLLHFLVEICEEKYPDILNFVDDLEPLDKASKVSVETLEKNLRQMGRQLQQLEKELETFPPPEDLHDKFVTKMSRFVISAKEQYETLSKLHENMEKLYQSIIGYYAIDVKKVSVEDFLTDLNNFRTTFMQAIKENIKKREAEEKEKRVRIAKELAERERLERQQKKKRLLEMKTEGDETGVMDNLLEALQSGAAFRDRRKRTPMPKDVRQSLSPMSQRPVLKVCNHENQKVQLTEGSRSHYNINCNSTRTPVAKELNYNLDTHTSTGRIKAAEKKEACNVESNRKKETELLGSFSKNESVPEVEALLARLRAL
# UniProt Q9NXC5: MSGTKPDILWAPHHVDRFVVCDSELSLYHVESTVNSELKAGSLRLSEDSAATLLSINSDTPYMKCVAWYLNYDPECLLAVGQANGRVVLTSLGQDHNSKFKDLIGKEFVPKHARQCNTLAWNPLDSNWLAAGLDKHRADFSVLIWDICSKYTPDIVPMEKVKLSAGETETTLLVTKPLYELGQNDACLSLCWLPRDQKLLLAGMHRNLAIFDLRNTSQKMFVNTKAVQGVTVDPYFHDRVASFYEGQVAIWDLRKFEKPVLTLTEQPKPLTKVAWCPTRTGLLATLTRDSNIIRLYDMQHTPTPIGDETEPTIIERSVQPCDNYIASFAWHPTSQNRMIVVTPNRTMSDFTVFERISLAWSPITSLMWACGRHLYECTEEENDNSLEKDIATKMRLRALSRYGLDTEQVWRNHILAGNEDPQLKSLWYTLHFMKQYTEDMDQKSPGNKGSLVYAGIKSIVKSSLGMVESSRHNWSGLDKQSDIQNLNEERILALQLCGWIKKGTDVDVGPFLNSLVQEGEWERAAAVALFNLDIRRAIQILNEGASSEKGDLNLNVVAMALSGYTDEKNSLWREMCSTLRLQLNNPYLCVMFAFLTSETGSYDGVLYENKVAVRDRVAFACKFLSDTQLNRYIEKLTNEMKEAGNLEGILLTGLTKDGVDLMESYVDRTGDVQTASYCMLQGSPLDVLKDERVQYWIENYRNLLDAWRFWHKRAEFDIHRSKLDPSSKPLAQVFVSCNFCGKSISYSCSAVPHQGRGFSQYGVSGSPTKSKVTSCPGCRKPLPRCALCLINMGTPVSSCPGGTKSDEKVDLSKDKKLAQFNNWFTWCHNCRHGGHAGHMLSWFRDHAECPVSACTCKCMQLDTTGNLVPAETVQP
# UniProt Q9NU19: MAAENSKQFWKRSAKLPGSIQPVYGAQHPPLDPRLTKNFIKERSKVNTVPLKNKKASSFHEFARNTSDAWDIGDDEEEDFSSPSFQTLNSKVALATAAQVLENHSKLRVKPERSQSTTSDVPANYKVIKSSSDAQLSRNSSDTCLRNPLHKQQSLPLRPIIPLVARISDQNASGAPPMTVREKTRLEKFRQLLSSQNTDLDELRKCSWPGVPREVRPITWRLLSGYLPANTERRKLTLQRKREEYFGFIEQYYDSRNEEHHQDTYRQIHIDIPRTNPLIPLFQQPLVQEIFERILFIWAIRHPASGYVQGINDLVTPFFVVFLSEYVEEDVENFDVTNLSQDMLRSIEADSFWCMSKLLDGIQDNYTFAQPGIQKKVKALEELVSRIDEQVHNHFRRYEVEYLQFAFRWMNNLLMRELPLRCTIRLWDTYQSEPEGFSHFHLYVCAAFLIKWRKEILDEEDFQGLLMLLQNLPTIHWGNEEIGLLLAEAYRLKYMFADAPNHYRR
# UniProt Q9NR33: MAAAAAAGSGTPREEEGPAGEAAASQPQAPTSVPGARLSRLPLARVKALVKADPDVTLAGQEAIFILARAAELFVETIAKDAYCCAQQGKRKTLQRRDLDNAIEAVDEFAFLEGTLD
# UniProt Q9NSK0: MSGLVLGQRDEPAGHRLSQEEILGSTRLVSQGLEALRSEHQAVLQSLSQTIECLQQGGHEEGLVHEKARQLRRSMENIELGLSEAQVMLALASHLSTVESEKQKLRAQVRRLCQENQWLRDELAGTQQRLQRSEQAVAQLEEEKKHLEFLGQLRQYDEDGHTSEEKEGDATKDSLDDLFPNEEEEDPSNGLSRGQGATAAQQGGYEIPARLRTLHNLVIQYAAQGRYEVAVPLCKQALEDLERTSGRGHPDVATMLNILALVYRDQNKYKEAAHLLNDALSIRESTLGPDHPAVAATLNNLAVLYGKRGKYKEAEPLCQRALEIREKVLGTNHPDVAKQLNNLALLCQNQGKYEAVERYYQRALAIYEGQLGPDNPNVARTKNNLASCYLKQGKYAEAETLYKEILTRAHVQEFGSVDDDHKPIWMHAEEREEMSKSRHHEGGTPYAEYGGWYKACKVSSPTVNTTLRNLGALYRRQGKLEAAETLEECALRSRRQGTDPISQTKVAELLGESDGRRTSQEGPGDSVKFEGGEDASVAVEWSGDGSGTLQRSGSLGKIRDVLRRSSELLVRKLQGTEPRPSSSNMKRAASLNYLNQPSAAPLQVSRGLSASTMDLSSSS
# UniProt Q9NRR6: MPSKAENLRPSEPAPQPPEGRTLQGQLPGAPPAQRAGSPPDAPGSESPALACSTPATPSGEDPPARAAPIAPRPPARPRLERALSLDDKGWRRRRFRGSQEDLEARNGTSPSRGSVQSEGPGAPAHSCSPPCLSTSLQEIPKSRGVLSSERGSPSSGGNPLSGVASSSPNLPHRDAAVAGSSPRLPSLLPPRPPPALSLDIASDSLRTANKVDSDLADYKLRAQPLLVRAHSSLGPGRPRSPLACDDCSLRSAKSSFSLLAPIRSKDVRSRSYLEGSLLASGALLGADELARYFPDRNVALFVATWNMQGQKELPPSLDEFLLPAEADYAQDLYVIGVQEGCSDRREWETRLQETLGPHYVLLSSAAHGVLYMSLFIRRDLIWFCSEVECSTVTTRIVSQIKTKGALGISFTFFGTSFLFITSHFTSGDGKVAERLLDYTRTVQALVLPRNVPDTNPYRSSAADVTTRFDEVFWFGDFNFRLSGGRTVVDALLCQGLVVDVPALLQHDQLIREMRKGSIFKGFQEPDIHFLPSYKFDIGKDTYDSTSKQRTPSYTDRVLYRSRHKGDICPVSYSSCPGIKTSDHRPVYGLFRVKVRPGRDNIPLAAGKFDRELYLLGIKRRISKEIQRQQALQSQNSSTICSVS
# UniProt Q9NSA3: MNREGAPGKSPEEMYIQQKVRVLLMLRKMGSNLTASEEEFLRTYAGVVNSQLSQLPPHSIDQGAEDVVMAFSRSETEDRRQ
# UniProt Q9NXR1: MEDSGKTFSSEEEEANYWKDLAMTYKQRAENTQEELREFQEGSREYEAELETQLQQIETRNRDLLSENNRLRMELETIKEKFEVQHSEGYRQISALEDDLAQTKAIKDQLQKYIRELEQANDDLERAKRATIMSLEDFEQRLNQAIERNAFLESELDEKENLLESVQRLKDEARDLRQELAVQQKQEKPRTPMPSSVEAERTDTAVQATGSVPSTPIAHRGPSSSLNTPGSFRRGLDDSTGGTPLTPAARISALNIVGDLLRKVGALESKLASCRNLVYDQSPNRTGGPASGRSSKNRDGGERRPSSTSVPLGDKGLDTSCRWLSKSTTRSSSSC
# UniProt Q9NVN3: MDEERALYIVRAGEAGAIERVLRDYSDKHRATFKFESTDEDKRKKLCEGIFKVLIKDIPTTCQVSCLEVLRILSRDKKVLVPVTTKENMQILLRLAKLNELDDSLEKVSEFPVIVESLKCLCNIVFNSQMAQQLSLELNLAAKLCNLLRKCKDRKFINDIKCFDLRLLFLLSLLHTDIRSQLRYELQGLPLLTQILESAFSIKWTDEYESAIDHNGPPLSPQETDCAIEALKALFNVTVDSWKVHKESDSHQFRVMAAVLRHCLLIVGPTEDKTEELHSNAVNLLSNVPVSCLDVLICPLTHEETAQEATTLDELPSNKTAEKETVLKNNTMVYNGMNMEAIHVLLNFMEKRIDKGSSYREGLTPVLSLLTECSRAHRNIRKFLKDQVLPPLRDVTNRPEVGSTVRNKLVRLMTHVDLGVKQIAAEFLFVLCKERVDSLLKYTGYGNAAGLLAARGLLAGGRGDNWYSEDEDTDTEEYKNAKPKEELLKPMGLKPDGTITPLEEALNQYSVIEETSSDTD
# UniProt Q9NV06: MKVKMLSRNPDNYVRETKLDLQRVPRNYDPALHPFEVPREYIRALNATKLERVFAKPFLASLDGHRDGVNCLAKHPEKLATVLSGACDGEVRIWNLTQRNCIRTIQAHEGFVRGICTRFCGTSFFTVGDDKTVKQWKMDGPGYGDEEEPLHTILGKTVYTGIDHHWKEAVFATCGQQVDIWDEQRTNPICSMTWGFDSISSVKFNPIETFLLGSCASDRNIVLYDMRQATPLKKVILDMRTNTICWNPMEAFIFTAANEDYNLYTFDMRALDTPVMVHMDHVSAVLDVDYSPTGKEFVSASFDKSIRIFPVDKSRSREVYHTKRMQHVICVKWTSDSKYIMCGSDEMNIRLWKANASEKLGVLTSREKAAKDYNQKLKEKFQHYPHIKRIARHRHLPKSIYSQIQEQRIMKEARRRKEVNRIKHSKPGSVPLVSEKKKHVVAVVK
# UniProt Q9NVM6: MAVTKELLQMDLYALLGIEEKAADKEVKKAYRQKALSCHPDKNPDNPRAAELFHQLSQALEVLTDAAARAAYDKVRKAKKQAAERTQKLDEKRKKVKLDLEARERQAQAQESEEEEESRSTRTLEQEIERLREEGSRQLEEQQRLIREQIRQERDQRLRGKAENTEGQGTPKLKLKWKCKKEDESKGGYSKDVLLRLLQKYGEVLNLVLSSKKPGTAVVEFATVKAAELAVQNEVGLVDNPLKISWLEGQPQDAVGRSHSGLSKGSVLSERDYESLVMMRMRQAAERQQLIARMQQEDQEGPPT
# UniProt Q9NXR5: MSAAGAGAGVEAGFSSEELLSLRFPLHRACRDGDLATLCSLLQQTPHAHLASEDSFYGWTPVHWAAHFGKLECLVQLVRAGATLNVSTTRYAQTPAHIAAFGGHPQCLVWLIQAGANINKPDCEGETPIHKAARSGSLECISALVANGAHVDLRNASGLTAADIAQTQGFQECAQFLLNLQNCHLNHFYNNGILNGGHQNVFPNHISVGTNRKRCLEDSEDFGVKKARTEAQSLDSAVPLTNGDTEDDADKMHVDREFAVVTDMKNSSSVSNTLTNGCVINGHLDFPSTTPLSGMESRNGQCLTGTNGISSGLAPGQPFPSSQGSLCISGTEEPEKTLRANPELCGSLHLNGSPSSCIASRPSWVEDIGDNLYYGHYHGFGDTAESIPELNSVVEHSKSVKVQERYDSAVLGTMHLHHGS
# UniProt Q9NUU7: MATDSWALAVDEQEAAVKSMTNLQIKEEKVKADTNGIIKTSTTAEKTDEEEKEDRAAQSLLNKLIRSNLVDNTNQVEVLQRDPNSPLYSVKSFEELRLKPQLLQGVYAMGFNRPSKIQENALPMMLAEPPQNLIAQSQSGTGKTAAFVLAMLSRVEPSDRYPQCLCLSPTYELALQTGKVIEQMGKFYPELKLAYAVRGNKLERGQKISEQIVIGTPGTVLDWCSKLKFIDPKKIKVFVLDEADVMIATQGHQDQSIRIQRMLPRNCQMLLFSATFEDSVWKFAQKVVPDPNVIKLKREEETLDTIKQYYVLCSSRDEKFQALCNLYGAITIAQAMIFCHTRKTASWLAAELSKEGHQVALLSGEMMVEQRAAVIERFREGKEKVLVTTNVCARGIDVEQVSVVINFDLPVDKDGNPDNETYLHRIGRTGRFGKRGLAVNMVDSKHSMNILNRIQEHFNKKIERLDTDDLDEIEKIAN
# The other results are listed elsewhere or left out. Most values lie at the level of the controls, where differences are scatter.
# Compound: CN[C@@H]1C[C@H]2O[C@@](C)([C@@H]1OC)n1c3ccccc3c3c4c(c5c6ccccc6n2c5c31)C(=O)NC4 [staurosporine]
# Assay: log2 fold change of tryptic peptide abundance, ligand vs vehicle (limited proteolysis) (log2 ratio); higher = more trypsin-susceptible (destabilized)
# Conditions: ligand concentration: 20 uM; sample: K562 cleared lysate; digestion: 4 min, 22 C (HT-PELSA RT4min, Orbitrap Astral)
row,Target,log2 fold change
1,"DIAPH3 (peptide sequence: LAESMIQNLIK, peptide start residue: 749) (UniProt Q9NSV4)",0.221
2,"MIOS (peptide sequence: SSLGMVESSR, peptide start residue: 462) (UniProt Q9NXC5)",-0.123
3,"TBC1D22B (peptide sequence: VALATAAQVLENHSK, peptide start residue: 92) (UniProt Q9NU19)",0.15
4,"CTPS2 (peptide sequence: LYGDVPFIEER, peptide start residue: 467) (UniProt Q9NRF8)",0.416
5,"POLE4 (peptide sequence: ADPDVTLAGQEAIFILAR, peptide start residue: 52) (UniProt Q9NR33)",-0.237
6,"SIRT3 (peptide sequence: LSLQDVAELIR, peptide start residue: 123) (UniProt Q9NTG7)",-0.199
7,"KLC4 (peptide sequence: YAEAETLYK, peptide start residue: 395) (UniProt Q9NSK0)",-0.137
8,"UniProt Q9NV72 (peptide sequence: VFNQQSNLAR, peptide start residue: 334)",0.5
9,"MED9 (peptide sequence: AREEENYSFLPLVHNIIK, peptide start residue: 57) (UniProt Q9NWA0)",0.163
10,"INPP5E (peptide sequence: SSFSLLAPIR, peptide start residue: 255) (UniProt Q9NRR6)",-0.462
11,"MTPAP (peptide sequence: TVLIHCPEKISENK, peptide start residue: 77) (UniProt Q9NVV4)",0.339
12,"CTNNBIP1 (peptide sequence: VLLMLRK, peptide start residue: 22) (UniProt Q9NSA3)",-0.135
13,"UniProt Q9NVM9 (peptide sequence: TNNIELHYCTGAYR, peptide start residue: 323)",-0.407
14,"MRPL17 (peptide sequence: QSQEASNHSSHTAQTPGI, peptide start residue: 158) (UniProt Q9NRX2)",-0.095
15,"NDE1 (peptide sequence: RPSSTSVPLGDKGLDTSCR, peptide start residue: 304) (UniProt Q9NXR1)",-0.304
16,"KIF13B (peptide sequence: LKEGSNINK, peptide start residue: 270) (UniProt Q9NQT8)",0.386
17,"RIC8B (peptide sequence: DQVLPPLR, peptide start residue: 386) (UniProt Q9NVN3)",0.442
18,"UniProt Q9NX38 (peptide sequence: QYEEVMVKR, peptide start residue: 165)",-0.861
19,"UniProt Q9NV06 (peptide sequence: FQHYPHIK, peptide start residue: 381)",0.64
20,"UniProt Q9NRP2 (peptide sequence: KLFNPPEESEK, peptide start residue: 69)",-0.188
21,"DNAJC17 (peptide sequence: MQQEDQEGPPT, peptide start residue: 294) (UniProt Q9NVM6)",-0.0888
22,"UniProt Q9NXR5 (peptide sequence: AGATLNVSTTR, peptide start residue: 80)",0.16
23,"UniProt Q9NXF7 (peptide sequence: DHATLNGALQFATK, peptide start residue: 137)",-0.227
24,"LYRM2 (peptide sequence: SATEEDTIR, peptide start residue: 58) (UniProt Q9NU23)",0.546
25,"DDX19A (peptide sequence: VKADTNGIIK, peptide start residue: 30) (UniProt Q9NUU7)",-0.106

# Looked up one by one from the entries so far (two):
row,Target,log2 fold change
11,"MTPAP (peptide sequence: TVLIHCPEKISENK, peptide start residue: 77) (UniProt Q9NVV4)",0.339
7,"KLC4 (peptide sequence: YAEAETLYK, peptide start residue: 395) (UniProt Q9NSK0)",-0.137
